Test results from patent US7026282B1, “Peptide antagonists of the human urokinase receptor and method for selecting them” (Cancerforskningsfonden AF 1989 (Fonden Til Fremme AF …, priority 1998, dated 2006).
Not every detail of the peptide structures is certain; ends, links or a residue may be inferred. Some of these results come from one statement about several compounds together. Positions of bridges follow the written chain, without caps; N, C: chain ends. Non-standard residues stand in square brackets, D forms with d. Residues, ends and D or L forms follow the SMILES beside them. Chains are numbered I, II in the order given. Cha = N[C@@H](CC1CCCCC1)C(=O)O; βAla = NCCC(=O)O

Protein sequences, listed by entry. Tags and fused reporters are not part of them. Residues count along the entry.
UniProt Q03405, 23-305 limits assumed: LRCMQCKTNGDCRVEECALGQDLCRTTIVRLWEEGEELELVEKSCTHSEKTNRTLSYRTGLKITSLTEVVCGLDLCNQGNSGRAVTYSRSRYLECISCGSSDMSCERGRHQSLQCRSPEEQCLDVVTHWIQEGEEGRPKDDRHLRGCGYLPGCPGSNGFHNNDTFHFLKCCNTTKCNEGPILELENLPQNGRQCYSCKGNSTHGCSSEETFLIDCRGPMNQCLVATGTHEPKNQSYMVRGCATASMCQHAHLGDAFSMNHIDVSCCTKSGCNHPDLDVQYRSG

How the values were obtained:
[1] = biological target: T1, neuramimidase-treated human suPAR (soluble recombinant uPAR) (Homo sapiens, UniProt Q03405); test: Biacore Binding Assay (surface plasmon resonance), ligand binding to immobilised suPAR; details: for off-rate, times slower than the monomer AE105: compared with AE105
T1 construct: A soluble recombinant variant of human uPAR (suPAR) was expressed in Chinese hamster ovary (dhfr) cells; made in house; host or cells: Chinese hamster ovary (dhfr) cells
Protocol: Association rate constants (kass), dissociation rate constants (kdiss) and equilibrium binding constants (kd) for various synthetic peptides and receptor binding derivatives of human uPA were determined by surface plasmon resonance (R. Karlsson et al. (1991) J. Immunol. Meths. 145:229–240) using a BIAcore2000™ instrument (Pharmacia Biosensor, Uppsala, Sweden). Due to the low isoelectric point of uPAR (pI≈4.5) terminal sialic acid residues were removed from its N-linked carbohydrates to facilitate chemical immobilisation on the sensor chip. This was accomplished by incubating purified suPAR (1 mg/ml in 50 mM phosphate, 150 mM NaCl, pH 7.4) with 5 μg/ml neuramimidase for 4 hours at 37° C. […]
Sensorgrams (RU versus time) were recorded (FIG. 2) at a flow rate of 10 μl per min at 5° C. using several different concentrations of the ligand (synthetic peptides, uPA, the amino-terminal fragment (ATF) of uPA, or the growth factor domain (GFD) of uPA) in the range of 10 to 1000 nM in running buffer (10 mM HEPES, 150 mM NaCl, 3 mM EDTA (pH 7.4) including 0.005% surfactant P-20). […] The sensorgrams obtained were analysed by non-linear least squares fitting using BIAevaluation 2.0 software (Pharmacia Biosensor, Uppsala, Sweden) assuming single-site association and dissociation models. […]
Surface plasmon resonance sensorgrams (RU versus time) were recorded at a flow rate of 10 μl per min at 5° C. using several different concentrations of the ligand (i.e. the relevant peptide or GFD) in the range from 10 to 1000 nM in running buffer (10 mM HEPES, 150 mM NaCl, 3 mM EDTA (pH 7.4) including 0.005% surfactant P-20). […]
The obtained sensorgrams were analysed by non-linear least squares fitting using BIAevaluation 2.0 software (Pharmacia Biosensor, Uppsala, Sweden) assuming single-site ssociation and dissociation models.

[2] = biological target: cell-surface uPAR on monolayer cultures of human MDA-MB-231 breast cancer cells (Homo sapiens, UniProt Q03405); test: Cell binding experiments with 125I-labelled human ATF (uPA/uPAR Binding Assay); details: for effectiveness in inhibiting radio-labelled human ATF binding to cell-surface uPAR: 0.1% bovine serum albumin
Protocol: The peptides were tested for their ability to inhibit binding of radio-labelled amino terminal fragment (ATF) of human uPA to monolayer cultures of human MDA-MB-231 breast cancer cells.
MDA-MB-231 BAG cells were harvested by trypsin/EDTA treatment and added to 5% FCS supplemented medium in 24 well cluster plates at a cell density of 100,000 cells per well or as indicated otherwise. For background estimation, wells without cells were included in order to measure binding of ^125I-labelled ligand to the plastic. Next day the adherent monolayers were washed twice in binding-buffer (0.1% bovine serum albumin (BSA; Fraction V, Sigma) and 5 mM Hepes in Eagles MEM supplemented with Glutamax-1, pH 7.4). Before binding experiments, the cells were subjected to acid treatment to liberate receptor-bound endogenous uPA. Each culture well was incubated for 3 min at 23° C. with 200 μL of 0.05 M glycine-HCl, 0.1 M NaCl, pH 3.0, after which 200 μL of 0.5 M Hepes, 0.1 M NaCl pH 7.5 was added to neutralize the acid buffer. The wells were then emptied and washed once with binding buffer. Various competitors diluted in binding buffer were then added to the wells, followed by a pre-incubation at 37° C. for 15 min. Finally, ^125I-labelled ligand was added to each well at a final concentration of 1 nM. Cells were incubated at 4° C. for 60 min, and then washed three times in binding-buffer. Subsequently, the cells were lysed by addition of 1 N NaOH to the wells. Aliquots from the wells were finally measured for radioactivity on a γ-counter.

recombinant human suPAR = biological target: T2, recombinant human suPAR (Homo sapiens, UniProt Q03405); test: Species specificity: suPAR binding to immobilised AE120 by surface plasmon resonance; details: 200 nM human suPAR
T2 construct: A soluble recombinant variant of human uPAR (suPAR) was expressed in Chinese hamster ovary (dhfr) cells; made in house; host or cells: Chinese hamster ovary (dhfr) cells

mouse suPAR = biological target: T3, mouse suPAR (Mus musculus, UniProt P35456); test: as above; details: 200 nM mouse suPAR
T3 construct: the peptide antagonist AE120 and recombinant human versus mouse suPAR
T3 sequence (P35456 24-298 limits assumed): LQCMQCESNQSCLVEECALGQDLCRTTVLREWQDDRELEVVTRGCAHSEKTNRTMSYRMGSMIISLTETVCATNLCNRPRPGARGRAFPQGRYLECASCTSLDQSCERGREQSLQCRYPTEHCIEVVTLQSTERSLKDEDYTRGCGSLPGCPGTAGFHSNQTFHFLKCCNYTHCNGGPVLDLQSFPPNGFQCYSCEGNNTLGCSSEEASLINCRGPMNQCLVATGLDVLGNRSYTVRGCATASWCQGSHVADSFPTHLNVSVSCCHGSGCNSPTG

SMILES	off-rate, times slower than the monomer AE105 [1]	Relative kdiss ([1]; relative to the Growth Factor Domain of uPA (GFD = 1.0))	effect on ATF binding in the presence of fetal calf serum ([2]; 0.1% and 10% fetal calf serum)	effectiveness in inhibiting radio-labelled human ATF binding to cell-surface uPAR [2]	binding of human suPAR to immobilised peptide (recombinant human suPAR)	binding of mouse suPAR to immobilised peptide (mouse suPAR)
CC(C)C[C@H](NC(=O)[C@H](Cc1ccc(O)cc1)NC(=O)[C@@H](CCCNC(=N)N)NC(=O)[C@@H](CO)NC(=O)[C@H](Cc1ccccc1)NC(=O)[C@H](CC1CCCCC1)NC(=O)[C@@H](N)CC(=O)O)C(=O)N[C@@H](Cc1c[nH]c2ccccc12)C(=O)N[C@@H](CO)C(=O)NCC(=O)NCCCC[C@H](NC(=O)CNC(=O)[C@H](CO)NC(=O)[C@H](Cc1c[nH]c2ccccc12)NC(=O)[C@H](CC(C)C)NC(=O)[C@H](Cc1ccc(O)cc1)NC(=O)[C@@H](CCCNC(=N)N)NC(=O)[C@@H](CO)NC(=O)[C@H](Cc1ccccc1)NC(=O)[C@H](CC1CCCCC1)NC(=O)[C@@H](N)CC(=O)O)C(=O)O [AE118, [DChaFsrYLWSG]2-K] (I: H-D[Cha]F[dS][dR]YLWSGK-OH / II: H-D[Cha]F[dS][dR]YLWSG; amide I:11-II:C; N-terminus and C-terminus assumed)	5–7 times	0.28	also observed in the presence of 0.1% and even 10% fetal calf serum	considerably more effective than both		
CC(C)C[C@H](NC(=O)[C@H](Cc1ccc(O)cc1)NC(=O)[C@@H](CCCNC(=N)N)NC(=O)[C@@H](CO)NC(=O)[C@H](Cc1ccccc1)NC(=O)[C@H](CC1CCCCC1)NC(=O)[C@@H](N)CC(=O)O)C(=O)N[C@@H](Cc1c[nH]c2ccccc12)C(=O)N[C@@H](CO)C(=O)NCC(=O)NCCCC[C@H](NC(=O)CCNC(=O)CNC(=O)[C@H](CO)NC(=O)[C@H](Cc1c[nH]c2ccccc12)NC(=O)[C@H](CC(C)C)NC(=O)[C@H](Cc1ccc(O)cc1)NC(=O)[C@@H](CCCNC(=N)N)NC(=O)[C@@H](CO)NC(=O)[C@H](Cc1ccccc1)NC(=O)[C@H](CC1CCCCC1)NC(=O)[C@@H](N)CC(=O)O)C(=O)O [AE120, α-[DChaFsrYLWSGβA]-ε-[DChaFsrYLWSG]-K] (I: H-D[Cha]F[dS][dR]YLWSG[βAla]K-OH / II: H-D[Cha]F[dS][dR]YLWSG; amide I:12-II:C)	5–7 times			more effective than the reference peptide AE78	bind with very high affinity	did not interact to any significant degree
